# In publication PMC12431657, “Discovery and mechanistic insights of dibenzoylmethane as a broad spectrum inhibitor of coronavirus” (PLOS Pathogens, 2025):
# Structures can show the parent of a compound that is named as a salt. Where two headings read alike, the source gives them in different places. The campaign covered roughly 3,300 compounds. About 60 (2%) showed an effect of 50% or more. Some of the results follow. Numbered stars: 1 amine (or outer) side, 2 acyl side, 3 side chain; on linkers, the order of the positions; unused ones are H or OH. Square brackets hold non-standard residues; d marks the D form. Peptide text beside a SMILES is read from it. X1 = CC[C@@H](C)[C@@H](O[*:1])C(=O)[*:2]; NMeVal(β-OH) = CN[C@H](C(=O)O)C(C)(C)O; NMeF = CN[C@@H](Cc1ccccc1)C(=O)O; aIle = CC[C@@H](C)[C@H](N)C(=O)O; NMeV = CN[C@H](C(=O)O)C(C)C
# Test system: HCoV-OC43
# Set-up: species or system RD; HTS, protection from HCoV-OC43 induced cell death, luminescent cell viability (CellCounting-Lite 2.0), inhibition rate
Compound,"OC43 Inhibition rate (24 h, 10 µM; inhibitor)","OC43 Inhibition rate (24 h, 10 µM, inhibitor)"
O=C(O)CCCCCCCCCO [10-Hydroxydecanoic acid],-0.1%,–
O=c1ccc2c(O)c3ccoc3cc2o1 [Bergaptol],-0.5%,–
COC(=O)C1=CCCNC1 [Guvacoline (hydrochloride)],8.7%,–
CC(C)=CCC[C@H](C(=O)O)[C@H]1CC[C@]2(C)C3=C(CC[C@@]12C)[C@@]1(C)CCC(=O)C(C)(C)[C@H]1CC3 [β-Elemonic acid],-1.4%,–
CC1(C)OC1COc1c2occc2cc2ccc(=O)oc12 (centres unmarked) [Oxyimperatorin],2.8%,–
CC[C@@H](C)[C@@H]1NC(=O)[C@@H]2CCCN2C(=O)[C@H](Cc2ccccc2)N(C)C(=O)[C@H](Cc2ccccc2)NC(=O)[C@H](C(C)C)N(C)C(=O)[C@@H]([C@H](C)CC)OC(=O)[C@H](C(C)(C)O)N(C)C(=O)[C@H](CC(C)C)NC(=O)[C@H](C(C)C)N(C)C1=O [Aureobasidin A] (cyclo(F[NMeF]P[aIle][NMeV]L[NMeVal(β-OH)][X1][NMeV])),14.4%,–
COc1cc(CCN)ccc1O [3-Methoxytyramine],–,-0.3%
C/C=C1/C[C@@H](C)[C@@](C)(O)C(=O)OCC2=CCN3CC[C@@H](OC1=O)[C@@H]23 [Senecionine],-0.3%,–
Nc1ncnc2c1ncn2[C@@H]1O[C@H](COP(N)(=O)O)[C@@H](O)[C@H]1O [Adenosine 5′-monophosphoramidate (sodium)],-0.3%,–
NC(=O)NCCCC[C@H](N)C(=O)O [L-Homocitrulline],0.4,–
C[C@]12CC[C@H](OS(=O)(=O)O)CC1=CC[C@@H]1[C@@H]2CC[C@]2(C)C(=O)CC[C@@H]12 [Dehydroepiandrosterone sulfate (sodium salt)],0.3%,–
CC[C@@]1(O)C(=O)OCc2c1cc1n(c2=O)Cc2cc3c(OC)cccc3nc2-1 [9-Methoxycamptothecin],-2.3%,–
O=C(O)c1cc2c(c3c1c([N+](=O)[O-])cc1ccccc13)OCO2 [Aristolochic acid B],-0.8%,–
CO[C@H]1CC[C@@H](O[C@H]2C[C@H]([C@]3(C)CC[C@]4(C[C@H](O)[C@@H](C)[C@@H]([C@@H](C)/C=C(\C)C(=O)[C@H](C)C[C@H](C)C(=O)O)O4)O3)O[C@]3(O[C@@H]([C@H]4O[C@@](O)(CO)[C@H](C)C[C@@H]4C)C[C@@H]3C)[C@@H]2C)O[C@@H]1C [Nanchangmycin],–,-4.6%
COC(=O)[C@]1(C)CC[C@]2(C)CC[C@]3(C)C4=CC=C5C(=CC(=O)C(O)=C5C)[C@]4(C)CC[C@@]3(C)[C@@H]2C1 [Pristimerin],-3.5%,–
COC1=CC(=O)O[C@@H](CCc2ccccc2)C1 [Dihydrokavain],2.2%,–
C[C@@H]1CC[C@@]2(NC1)O[C@H]1C[C@H]3[C@@H]4CC=C5C[C@@H](O[C@@H]6O[C@H](CO)[C@@H](O[C@@H]7O[C@@H](C)[C@H](O)[C@@H](O)[C@H]7O)[C@H](O)[C@H]6O)CC[C@]5(C)[C@H]4CC[C@]3(C)[C@H]1[C@@H]2C [Khasianine],67.5%,–
COc1cc(CNC(=O)CCCCCC(C)C)ccc1O [Nordihydrocapsaicin],0.2%,–
O=C(O)[C@H]1O[C@@H](Oc2cc3oc(-c4ccc(O)cc4)cc(=O)c3c(O)c2O)[C@H](O)[C@@H](O)[C@@H]1O [Scutellarin],-2,–
CCC1(O)C(=O)OCc2c1cc1n(c2=O)Cc2cc3cc(O)ccc3nc2-1 (racemic) [(±)-10-Hydroxycamptothecin],-1.7,–
C[C@@H]1CC[C@@]2(OC1)O[C@H]1C[C@H]3[C@@H]4CC=C5C[C@@H](O[C@@H]6O[C@H](CO)[C@@H](O[C@@H]7O[C@@H](C)[C@H](O[C@@H]8O[C@@H](C)[C@H](O)[C@@H](O)[C@H]8O)[C@@H](O)[C@H]7O)[C@H](O)[C@H]6O[C@@H]6O[C@@H](C)[C@H](O)[C@@H](O)[C@H]6O)CC[C@]5(C)[C@H]4CC[C@]3(C)[C@H]1[C@@H]2C [Formosanin C],5.5%,–
C[C@]12CCC(=O)C=C1CC[C@@H]1[C@@H]2[C@@H](O)C[C@]2(C)C(=O)CC[C@@H]12 [11-Beta-hydroxyandrostenedione],0.5%,–
CC(=O)OC[C@]12[C@H](OC(C)=O)[C@H](OC(C)=O)[C@@H]3[C@@H](OC(C)=O)[C@@]14O[C@@]3(C)COC(=O)c1cccnc1CCC(C)C(=O)O[C@@H]([C@H](OC(=O)c1ccccc1)[C@@H]2OC(C)=O)[C@]4(C)O (some centres unmarked) [Wilforine],-0.7%,–
C[C@]12CC[C@H]3[C@@H](CC[C@@H]4C[C@@H](O)CC[C@@]43CO)[C@@]1(O)CC[C@@H]2c1ccc(=O)oc1 [19-Hydroxybufalin],2.7%,–
O=c1cc(O)c2ccccc2o1 [4-Hydroxycoumarin],0.9%,–
NC(=O)c1cn([C@@H]2O[C@H](CO)[C@@H](O)[C@H]2O)c2ncnc(N)c12 [Sangivamycin],3%,–
CO[C@@H]1C[C@@H](C[C@H]2CC[C@H](C)[C@H]([C@@H](C)C(=O)O)O2)O[C@]2(O[C@](C)([C@H]3CC[C@@](C)([C@@H]4O[C@@H]([C@H]5O[C@@](O)(CO)[C@H](C)C[C@@H]5C)C[C@@H]4C)O3)C[C@H]2C)[C@@H]1C [Nigericin (sodium salt)],8.7%,–
COC1=CC(=O)O[C@@H](CCc2ccc3c(c2)OCO3)C1 [Dihydromethysticin],-0.3%,–
C=C1C(=O)O[C@@H]2[C@H]3C(C)=CC[C@@]34O[C@@]4(C)CC[C@@H]12 [Arglabin],16.5,–

# A stretch from further up, as a working copy:
Compound,"OC43 Inhibition rate (24 h, 10 µM; inhibitor)","OC43 Inhibition rate (24 h, 10 µM, inhibitor)"
NC(=O)NCCCC[C@H](N)C(=O)O [L-Homocitrulline],0.4,–
C[C@]12CC[C@H](OS(=O)(=O)O)CC1=CC[C@@H]1[C@@H]2CC[C@]2(C)C(=O)CC[C@@H]12 [Dehydroepiandrosterone sulfate (sodium salt)],0.3%,–
